Laboratory results published in patent publication US20140377289A1, “Metallodrugs Having Improved Pharmacological Properties, and Methods of Manufacture and Use Thereof” (MetalloPharm, LLC, priority 2011, published 2014).
The name of at least one read-out is uncertain. Where a SMILES comes first, the peptide text is derived from it.

Sequences of proteins named here, by UniProt entry; tags and fusion partners are left off. Residues count along the entry.
UniProt P12821, 30-1261: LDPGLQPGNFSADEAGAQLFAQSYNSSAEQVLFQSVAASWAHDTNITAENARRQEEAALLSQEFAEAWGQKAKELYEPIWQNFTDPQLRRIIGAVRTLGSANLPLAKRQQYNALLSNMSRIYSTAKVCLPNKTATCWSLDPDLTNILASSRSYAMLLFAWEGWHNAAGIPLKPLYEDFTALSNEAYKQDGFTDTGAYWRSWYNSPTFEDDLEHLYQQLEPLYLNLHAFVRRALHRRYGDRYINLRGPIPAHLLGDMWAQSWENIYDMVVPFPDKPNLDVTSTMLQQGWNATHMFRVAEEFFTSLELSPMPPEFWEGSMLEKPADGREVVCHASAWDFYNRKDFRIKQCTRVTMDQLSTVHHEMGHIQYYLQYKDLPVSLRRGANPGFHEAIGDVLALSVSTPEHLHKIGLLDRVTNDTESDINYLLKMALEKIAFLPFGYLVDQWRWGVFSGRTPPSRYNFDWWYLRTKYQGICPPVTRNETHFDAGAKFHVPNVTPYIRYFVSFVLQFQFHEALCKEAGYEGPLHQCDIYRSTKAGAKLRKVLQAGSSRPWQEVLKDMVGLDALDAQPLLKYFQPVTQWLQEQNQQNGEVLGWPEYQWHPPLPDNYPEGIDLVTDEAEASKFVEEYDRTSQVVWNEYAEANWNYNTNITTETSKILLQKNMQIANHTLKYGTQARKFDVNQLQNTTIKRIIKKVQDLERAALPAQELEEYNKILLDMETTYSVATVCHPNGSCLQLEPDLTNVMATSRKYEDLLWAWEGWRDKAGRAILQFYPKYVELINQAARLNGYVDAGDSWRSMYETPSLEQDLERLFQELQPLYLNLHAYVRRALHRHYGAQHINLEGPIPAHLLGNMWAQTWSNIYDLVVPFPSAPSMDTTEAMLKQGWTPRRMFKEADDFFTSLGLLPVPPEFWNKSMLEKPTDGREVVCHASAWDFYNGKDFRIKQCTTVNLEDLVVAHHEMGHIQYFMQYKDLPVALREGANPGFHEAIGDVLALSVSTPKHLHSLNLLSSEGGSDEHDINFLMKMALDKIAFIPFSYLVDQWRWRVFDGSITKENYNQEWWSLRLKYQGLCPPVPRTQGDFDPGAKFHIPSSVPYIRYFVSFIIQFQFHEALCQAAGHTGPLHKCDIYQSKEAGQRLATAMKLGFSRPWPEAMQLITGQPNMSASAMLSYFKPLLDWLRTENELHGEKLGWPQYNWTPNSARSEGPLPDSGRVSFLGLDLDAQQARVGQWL

Molecular target: T1, Recombinant human somatic ACE (sACE-1) (Homo sapiens, UniProt P12821)
T1 construct: sACE-1: Leu30-Leu1261, with C-terminal His tag; His tag (C); purchased R&D Systems; host or cells: NS0-derived murine myeloma cell line
Assay: Determination of IC50 values, sACE-1 fluorogenic substrate cleavage
Assay type: biochemical

## NCC(=O)NCC(=O)N[C@@H](Cc1c[nH]cn1)C(=O)O [Cu-GGH] (H-Gly-Gly-His-OH)
  Affinities based on IC50's: 59000 M⁻¹
